Results as given in PubChem BioAssay AID248 (DTP/NCI, 2004).
The list does not hold the whole screen: it is rich in T/C values a quarter to a half above the control, in often repeated tests (any T/C) and in doses without a T/C. Other doses and runs of a compound stand elsewhere. T/C: endpoint of the treated group in % of that of the vehicle group. Some entries give survivors of the animals treated and no T/C: the source holds a T/C of zero for them, seemingly a mark for toxic or unscored doses. Some doses without a T/C left all or most animals alive at the check, yet need not have been tolerated: the source hardly ever lists a survival T/C far under the control, and the zero likely stands for such cases as well. Counts of survivors are from the toxicity check (mostly the fifth day) where no day follows; animals may have died later. Schedules are NCI's codes, taken here to give the interval after Q, in days (D) or hours (H), and the number of doses after X. Marks such as (2×) say how often a value occurs here. Some doses were run more than once; their values stand side by side, smallest first. Some schedule codes hold Z or #, which are not explained here. For survival time, the PubChem record calls one and a half times the control and up active, and a quarter to a half above the control has no call in these data; cut-offs in other NCI protocols can differ. Some T/C values are followed by the survivors on the day toxicity was checked, most often the fifth; where none is given, no animal had died by that day.

System: L1210 leukemia ip in BDF1 mice, survival T/C
Assay: NCI In Vivo Anticancer Drug Screen. Data for tumor model L1210 Leukemia (intraperitoneal) in B6D2F1 (BDF1) mice
Conditions: T/C endpoint: mean survival time, higher T/C = longer survival
[1] = dose: 200.0 mg/kg/injection, schedule: Q01DX001 (ip), vehicle: saline
[2] = dose: 400.0 mg/kg/injection, schedule: Q01DX001 (ip), vehicle: saline
[3] = dose: 100.0 mg/kg/injection, schedule: Q01DX009 (ip), vehicle: Klucel (hydroxypropylcellulose) (HPC)
[4] = dose: 400.0 mg/kg/injection, schedule: Q01DX009 (ip), vehicle: Klucel (hydroxypropylcellulose) (HPC)
[5] = dose: 200.0 mg/kg/injection, schedule: Q04DX003 (ip), vehicle: saline with Tween-80
[6] = dose: 400.0 mg/kg/injection, schedule: Q04DX003 (ip), vehicle: saline with Tween-80

With CN(CCOS(C)(=O)=O)CCOS(C)(=O)=O the T/C (dose: 0.06 mg/kg/injection, schedule: Q01DX009 (ip), vehicle: saline) was 125 % of control, the T/C (dose: 0.09 mg/kg/injection, schedule: Q01DX009 (ip), vehicle: saline) was 132 % of control and the T/C (dose: 0.11 mg/kg/injection, schedule: Q01DX009 (ip), vehicle: saline) was 132 % of control. The T/C (dose: 0.13 mg/kg/injection, schedule: Q01DX009 (ip), vehicle: saline) was 145 % of control, the T/C (dose: 0.19 mg/kg/injection, schedule: Q01DX009 (ip), vehicle: saline) was 133 and 134 % of control and the T/C (dose: 0.2 mg/kg/injection, schedule: Q01DX009 (ip), vehicle: saline) was 140 % of control. For the same compound, the T/C (dose: 0.29 mg/kg/injection, schedule: Q01DX009 (ip), vehicle: saline) was 139 % of control, the T/C (dose: 0.4 mg/kg/injection, schedule: Q01DX009 (ip), vehicle: saline, evaluated on day 30) was 127 % of control and the T/C (dose: 0.4 mg/kg/injection, schedule: Q01DX009 (ip), vehicle: saline, run until all animals had died) was 131 % of control. For the same compound, the T/C (dose: 0.44 mg/kg/injection, schedule: Q01DX009 (ip), vehicle: saline) was 130 % of control, the T/C (dose: 0.6 mg/kg/injection, schedule: Q01DX001 (ip), vehicle: saline) was 140 % of control and the T/C (dose: 0.6 mg/kg/injection, schedule: Q01DX009 (ip), vehicle: saline) was 127 % of control. For the same compound, the T/C (dose: 0.66 mg/kg/injection, schedule: Q01DX001 (ip), vehicle: saline, evaluated on day 30) was 143 % of control, the T/C (dose: 0.66 mg/kg/injection, schedule: Q01DX001 (ip), vehicle: saline, run until all animals had died) was 132 % of control and the survivor count (dose: 0.66 mg/kg/injection, schedule: Q01DX009 (ip), vehicle: saline) was 5 of 6 and 6 of 6. The T/C (dose: 0.8 mg/kg/injection, schedule: Q01DX009 (ip), vehicle: saline) was 129 % of control, the T/C (dose: 1.0 mg/kg/injection, schedule: Q01DX001 (ip), vehicle: saline, evaluated on day 30) was 127 and 143 % of control and the T/C (dose: 1.0 mg/kg/injection, schedule: Q01DX001 (ip), vehicle: saline, run until all animals had died) was 132 % of control. For the same compound, the survivor count (dose: 1.0 mg/kg/injection, schedule: Q01DX009 (ip), vehicle: saline) was 5 of 6 and 6 of 6, the T/C (dose: 1.2 mg/kg/injection, schedule: Q01DX009 (ip), vehicle: saline) was 127 % of control and the T/C (dose: 1.5 mg/kg/injection, schedule: Q01DX001 (ip), vehicle: saline, evaluated on day 30) was 123, 138, 140 % of control. For the same compound, the T/C (dose: 1.5 mg/kg/injection, schedule: Q01DX001 (ip), vehicle: saline, run until all animals had died) was 135 % of control, the survivor count (dose: 1.5 mg/kg/injection, schedule: Q01DX009 (ip), vehicle: saline) was 6 of 6 (2×) and the survivor count (dose: 1.6 mg/kg/injection, schedule: Q01DX009 (ip), vehicle: saline) was 6 of 6. The survivor count (dose: 2.2 mg/kg/injection, schedule: Q01DX009 (ip), vehicle: saline) was 4 of 6 and 5 of 6, the T/C (dose: 2.25 mg/kg/injection, schedule: Q01DX001 (ip), vehicle: saline, evaluated on day 30) was 130 % of control and the T/C (dose: 2.25 mg/kg/injection, schedule: Q01DX001 (ip), vehicle: saline, run until all animals had died) was 137 % of control. For the same compound, the survivor count (dose: 2.4 mg/kg/injection, schedule: Q01DX009 (ip), vehicle: saline) was 6 of 6, the T/C (dose: 3.0 mg/kg/injection, schedule: Q01DX001 (ip), vehicle: saline) was 127 % of control [5 of 6 alive] and the survivor count (dose: 12.5 mg/kg/injection, schedule: Q01DX001 (ip), vehicle: saline) was 0 of 4. For the same compound, the survivor count (dose: 25.0 mg/kg/injection, schedule: Q01DX001 (ip), vehicle: saline) was 0 of 4, the survivor count (dose: 50.0 mg/kg/injection, schedule: Q01DX001 (ip), vehicle: saline) was 0 of 4 and the survivor count (dose: 100.0 mg/kg/injection, schedule: Q01DX001 (ip), vehicle: saline) was 0 of 4. For the same compound, the survivor count [1] was 0 of 4, the survivor count [2] was 0 of 4 and the T/C (dose: 88.0 micrograms/kg/injection, schedule: Q01DX009 (ip), vehicle: saline) was 147 % of control.
CC[CH2][Sn]([Br])([CH2]CC(=O)OC)[CH2]CC(=O)OC was tested, and the survivor count (dose: 400.0 mg/kg/injection, schedule: Q04DX002 (ip), vehicle: saline with Tween-80) was 0 of 3.
For O=c1cc[nH]c2ccc(Cl)cc12, the survivor count [1] was 1 of 6 and the survivor count [2] was 0 of 6.
With Clc1nc(Br)[nH]c1Cl the survivor count (dose: 12.5 mg/kg/injection, schedule: Q01DX009 (ip), vehicle: Klucel (hydroxypropylcellulose) (HPC)) was 0 of 3, the survivor count (dose: 25.0 mg/kg/injection, schedule: Q01DX009 (ip), vehicle: Klucel (hydroxypropylcellulose) (HPC)) was 0 of 3 and the survivor count (dose: 50.0 mg/kg/injection, schedule: Q01DX009 (ip), vehicle: Klucel (hydroxypropylcellulose) (HPC)) was 0 of 3. For the same compound, the survivor count [3] was 0 of 3 and 0 of 6, the survivor count (dose: 200.0 mg/kg/injection, schedule: Q01DX009 (ip), vehicle: Klucel (hydroxypropylcellulose) (HPC)) was 0 of 6 and the survivor count [4] was 0 of 6.
In the case of CN(C)Cc1ccccc1C(=O)C(c1ccccc1)c1ccccc1, the survivor count (dose: 125.0 mg/kg/injection, schedule: Q01DX Z (ip), vehicle: methylcellulose (MC)) is reported as 1 of 6.
With CCCCN=C(C(=O)NCCCC)c1ccccc1NC(C)=O the survivor count [4] was 6 of 6.
In the case of Nc1nc2ccc(CNc3ccc(C(=O)NC(CCC(=O)O)C(=O)O)cc3)nc2c(=O)[nH]1 (configuration not stated), the T/C (dose: 100.0 mg/kg/injection, schedule: Q01DX001 (ip), vehicle: saline with Tween-80) is reported as 133 % of control, the survivor count (dose: 200.0 mg/kg/injection, schedule: Q01DX001 (ip), vehicle: saline with Tween-80) is reported as 6 of 6 and the survivor count (dose: 400.0 mg/kg/injection, schedule: Q01DX001 (ip), vehicle: saline with Tween-80) is reported as 6 of 6.
For CCn1c(=O)oc2ccccc2c1=S, the survivor count (dose: 400.0 mg/kg/injection, schedule: Q04DX003 (ip), vehicle: saline) was 4 of 4.
For CCOC(=O)NCC(CCN(C)C)(c1cccc2ccccc12)C(C)CC (configuration not stated), the survivor count [3] was 3 of 6 and the survivor count (dose: 200.0 mg/kg/injection, schedule: Q04DX003 (ip), vehicle: Klucel (hydroxypropylcellulose) (HPC)) was 3 of 6.
With CCOC(=O)C(C)F (configuration not stated) the survivor count (dose: 400.0 mg/kg/injection, schedule: Q01DX001 (ip), vehicle: carboxymethylcellulose (CMC)) was 1 of 4.
For O=C(CCCCl)Oc1ccccc1, the survivor count [5] was 6 of 6, the survivor count (dose: 400.0 mg/kg/injection, schedule: Q01DX009 (ip), vehicle: saline with Tween-80) was 4 of 6 and the survivor count [6] was 6 of 6.
With OCCC(c1ccccc1)(c1ccccc1)c1ccccc1 the survivor count (dose: 50.0 mg/kg/injection, schedule: Q04DX003 (ip), vehicle: saline with Tween-80) was 6 of 6, the survivor count (dose: 100.0 mg/kg/injection, schedule: Q04DX003 (ip), vehicle: saline with Tween-80) was 3 of 6 and the survivor count [5] was 3 of 6. For the same compound, the survivor count [6] was 0 of 6.
With O=C1OC(=O)c2cscc21 the survivor count [6] was 0 of 3.
For CC1(C)OC2OC(/C=C\C=O)C3OC(C)(C)OC3C2O1 (configuration not stated), the survivor count (dose: 400.0 mg/kg/injection, schedule: Q04DX003 (ip), vehicle: acetone) was 5 of 6.
O=C1CC2OCC=C3C[N+]4(SS(=O)(=O)[O-])CCC56c7ccccc7N1C5C2C3CC64 (configuration not stated) was tested, and the survivor count (dose: 2.1 mg/kg/injection, schedule: Q01DX009 (ip), vehicle: saline) was 1 of 6, the survivor count (dose: 2.5 mg/kg/injection, schedule: Q01DX001 (ip), vehicle: saline) was 0 of 6 and the survivor count (dose: 5.0 mg/kg/injection, schedule: Q01DX001 (ip), vehicle: saline) was 0 of 6. For the same compound, the survivor count (dose: 10.0 mg/kg/injection, schedule: Q01DX001 (ip), vehicle: saline) was 0 of 6, the survivor count (dose: 20.0 mg/kg/injection, schedule: Q01DX001 (ip), vehicle: saline) was 0 of 6 and the survivor count (dose: 40.0 mg/kg/injection, schedule: Q01DX001 (ip), vehicle: saline) was 0 of 6. For the same compound, the survivor count (dose: 75.0 mg/kg/injection, schedule: Q01DX001 (ip), vehicle: saline) was 0 of 6, the survivor count (dose: 150.0 mg/kg/injection, schedule: Q01DX001 (ip), vehicle: saline) was 0 of 6 and the survivor count (dose: 300.0 mg/kg/injection, schedule: Q01DX001 (ip), vehicle: saline) was 0 of 6.
